The experiment relates to HEK293A TEAD-LUC reporter. Put plainly: TEAD-luciferase reporter activity (YAP activation), robust Z score vs plate; higher = stronger YAP/TEAD activation. Conditions: 24 h.

Each structure is given as a SMILES string. Structures can show the parent of a compound that is named as a salt. The list shows a part of the results. This data set is noisy: repeats of one test often differ as much as different tests do.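 The human kidney-derived cells carry a stably integrated construct of eight TEAD-binding elements driving luciferase, read by luminescence in a drug-repurposing library screen. A compound counts as a hit when its signal is more than five robust Z scores above the plate mean.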

In the case of `NC(=O)c1cccc2cn(-c3ccc([C@@H]4CCCNC4)cc3)nc12` [niraparib], the TEAD-luciferase reporter activity runs as follows: (compound concentration: 200 nM) inactive: 0.22; (compound concentration: 2 uM) inactive: -2.21; (compound concentration: 10 uM) inactive: -1.28.
Regarding `Cc1cc(C)cc(-c2ccc(CN3CCCC3C(=O)NCc3ccc4c(c3)OCO4)cc2)c1` (stereo not given), the TEAD-luciferase reporter activity is active: 12.7 (compound concentration: 200 nM) and inactive: 3.4 (compound concentration: 10 uM).
For the compound `COC(=O)[C@@H]1NC(=O)[C@H]2NC(=O)[C@H](NC(=O)[C@@H]3NC(=O)[C@H]4NC(=O)[C@H](NC(=O)[C@H](N)c5ccc(O)c(c5)Oc5cc4cc(O)c5C)[C@H](O)c4ccc(cc4)Oc4cc3cc(c4O[C@@H]3O[C@H](CO[C@@H]4O[C@@H](C)[C@H](O)[C@@H](O)[C@H]4O)[C@@H](O)[C@H](O)[C@H]3O[C@H]3O[C@H](CO)[C@@H](O)[C@H](O)[C@@H]3OC3O[C@H](CO)[C@@H](O)[C@@H]3O)Oc3ccc(cc3)[C@H]2O[C@@H]2C[C@@H](N)[C@@H](O)[C@H](C)O2)c2ccc(O)c(c2)-c2c(O[C@@H]3O[C@H](CO)[C@@H](O)[C@H](O)[C@@H]3O)cc(O)cc21` (stereo not given in full) [methyl ester of ristocetin], the TEAD-luciferase reporter activity (compound concentration: 200 nM) is inactive: -1.17, the TEAD-luciferase reporter activity (compound concentration: 2 uM) is inactive: -1.57 and the TEAD-luciferase reporter activity (compound concentration: 10 uM) is inactive: 0.847.
With `CNC(C)=O` [N-methylacetamide], the TEAD-luciferase reporter activity is, setting by setting: (compound concentration: 200 nM) inactive: 2.87; (compound concentration: 2 uM) inactive: -0.32; (compound concentration: 10 uM) inactive: 0.303.
For `CCC(=O)c1ccc2c(c1)N(CCCN1CCN(CCO)CC1)c1ccccc1S2`, in that order: inactive: -0.725, inactive: 0.459 and inactive: -1.09.
The matching figures for `COc1ccc(-c2ccc3ncnc(Nc4ccc(-n5cncn5)cc4)c3c2)cc1OC`: inactive: -0.184, inactive: -0.768 and inactive: -1.07.
Consider `CCCCCCCCCC(=O)OCCN1CCN(CC/C=C2\c3ccccc3Sc3ccc(Cl)cc32)CC1` [Zuclopenthixol decanoate], for which the TEAD-luciferase reporter activity was inactive: -0.183 (compound concentration: 200 nM), inactive: -2.09 (compound concentration: 2 uM) and inactive: -0.574 (compound concentration: 10 uM).
For `CCC(C)C(=O)OC1CC(O)C=C2C=CC(C)C(CCC(O)CC(O)CC(=O)O)C21` (stereo not given) [pravastatin], in that order: inactive: -1.1, inactive: -1.48 and inactive: 3.93.
For the compound `O=C(O)c1cc(O)c2c(c1)C(=O)c1cccc(O)c1C2=O` [Rheinic acid], the TEAD-luciferase reporter activity (compound concentration: 200 nM) was inactive: -0.554, the TEAD-luciferase reporter activity (compound concentration: 2 uM) was inactive: -0.913 and the TEAD-luciferase reporter activity (compound concentration: 10 uM) is inactive: 0.277.
Consider `Cc1c(CN(C)C(=O)/C=C/c2cnc3c(c2)CCC(=O)N3)oc2ccccc12`, for which the TEAD-luciferase reporter activity is inactive: 2.56 (compound concentration: 200 nM) and inactive: -0.892 (compound concentration: 10 uM).
As to `Cc1c(CN(C)C(=O)/C=C/c2cnc3c(c2)CCC(=O)N3)oc2ccccc12` [Debio-1452], the TEAD-luciferase reporter activity (compound concentration: 2 uM) was inactive: -1.29.
As to `CC(C)C[C@@H](C(=O)N[C@@H](Cc1ccc(OCc2ccccc2)cc1)C(=O)NC(C)(C)C)N(C)Cc1ccc(C(C)(C)C)cc1`, the TEAD-luciferase reporter activity reads like this: (compound concentration: 200 nM) inactive: -0.582; (compound concentration: 2 uM) inactive: -0.0298; (compound concentration: 10 uM) inactive: 3.06.
The matching figures for `O=C(CCCCC1CCCCC1)N1CCC(c2cnc[nH]2)CC1`: inactive: 2.91, inactive: 0.362 and inactive: 0.845.
The matching figures for `CCOC(=O)c1cn(C2CC2)c2c(OC)c(N3CCC(=O)CC3)c(F)cc2c1=O`: inactive: -0.516, inactive: 0.292 and inactive: -0.123.
`CCCCN(CCCC)CC(O)c1cc(Cl)cc2c1-c1ccc(Cl)cc1C2=Cc1ccc(Cl)cc1` (stereo not given) [Lumefantrine]: the TEAD-luciferase reporter activity was inactive: -2.16 (compound concentration: 200 nM), inactive: -0.628 (compound concentration: 2 uM) and inactive: 1.49 (compound concentration: 10 uM).
With `CCc1ccc(C(=O)C(C)CN2CCCCC2)cc1` (stereo not given) [Eperisone hydrochloride], the TEAD-luciferase reporter activity reads like this: (compound concentration: 200 nM) inactive: -0.435; (compound concentration: 2 uM) inactive: 1.32; (compound concentration: 10 uM) inactive: 0.0948.
On to `N[C@@H](C(=O)N[C@@H]1C(=O)N2C(C(=O)O)=C(Cl)CC[C@H]12)c1ccccc1` [loracarbef], for which the TEAD-luciferase reporter activity is, setting by setting: (compound concentration: 200 nM) inactive: -0.514; (compound concentration: 2 uM) inactive: -1.66; (compound concentration: 10 uM) inactive: 2.8.
The matching figures for `O=C(CN1C(=O)c2ccccc2S1(=O)=O)Nc1ccc(O)cc1`: inactive: -0.661, inactive: -0.817 and inactive: 2.33.
The matching figures for `C[C@H](CO)Nc1nc(SCc2cccc(F)c2F)nc2[nH]c(=O)sc12`: inactive: -0.527, inactive: -0.797 and inactive: -1.27.
Regarding `CCc1nc2c(CC)cn(Cc3ccc(-c4ccccc4-c4nnn[nH]4)cc3)n2n1`, the TEAD-luciferase reporter activity (compound concentration: 200 nM) was inactive: -0.752, the TEAD-luciferase reporter activity (compound concentration: 2 uM) was inactive: -0.729 and the TEAD-luciferase reporter activity (compound concentration: 10 uM) was inactive: -0.0922.
For the compound `CN1C(N)=NS(=O)(=O)N=C1NCCSCc1csc(N=C(N)N)n1` [tuvatidine], the TEAD-luciferase reporter activity (compound concentration: 200 nM) was inactive: 0.99, the TEAD-luciferase reporter activity (compound concentration: 2 uM) was inactive: -0.23 and the TEAD-luciferase reporter activity (compound concentration: 10 uM) is inactive: 3.16.
The matching figures for `CC(=C/C=C/C=C(C)\C=C\C=C(\C)C(=O)O)/C=C/C=C(/C)C(=O)O` [transcrocetinate sodium]: inactive: -0.774, inactive: -0.26 and inactive: -0.298.
For `CC[C@H](C)n1cc(C)c2c(C(=O)NCc3c(C)cc(C)[nH]c3=O)cc(-c3ccc(N4CCNCC4)nc3)cc21`, in that order: inactive: -1.16, inactive: -0.945 and inactive: -0.685.
